These are yes or no findings as the source states them, for the method shown. Binding seen in cells or lysates may run through a third protein. These calls come from enrichment with a bait or labelling near it, and not all partners need be listed. Where a sequence is shown, tags or fusion partners need not be part of it.
Target: T1, HA-FBP1 (mouse) (UniProt Q9QXD6)
T1 sequence: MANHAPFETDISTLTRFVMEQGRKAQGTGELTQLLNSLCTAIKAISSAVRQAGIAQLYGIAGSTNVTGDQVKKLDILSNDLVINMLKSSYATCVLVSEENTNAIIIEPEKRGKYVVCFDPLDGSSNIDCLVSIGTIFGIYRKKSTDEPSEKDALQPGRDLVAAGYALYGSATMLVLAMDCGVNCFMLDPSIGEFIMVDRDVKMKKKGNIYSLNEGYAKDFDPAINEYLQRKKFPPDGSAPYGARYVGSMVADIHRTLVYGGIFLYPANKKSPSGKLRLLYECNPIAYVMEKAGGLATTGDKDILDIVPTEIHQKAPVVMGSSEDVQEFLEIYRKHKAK
Assay: affinity purification with mass spectrometry

The chains behind the UniProt entries cited, without tags or fusion partners. Where a name states a change or a piece, a line headed by the entry shows the natural chain unless it says otherwise.
UniProt P63330: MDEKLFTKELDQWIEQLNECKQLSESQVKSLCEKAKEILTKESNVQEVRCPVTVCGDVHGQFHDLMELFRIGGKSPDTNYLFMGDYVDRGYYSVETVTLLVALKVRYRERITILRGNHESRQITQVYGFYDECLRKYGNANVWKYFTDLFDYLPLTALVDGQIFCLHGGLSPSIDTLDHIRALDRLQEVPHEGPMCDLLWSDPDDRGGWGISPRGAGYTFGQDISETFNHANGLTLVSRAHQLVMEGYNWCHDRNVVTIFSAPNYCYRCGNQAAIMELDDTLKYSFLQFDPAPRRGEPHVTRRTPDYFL

| Molecule | binding |
| --- | --- |
| PP2A-C (mouse liver) (from UniProt P63330) (enzyme) | binds |
| ALDOB (mouse liver) (enzyme, UniProt Q91Y97 1-364) MAHRFPALTPEQKKELSEIAQRIVANGKGILAADESVGTMGNRLQRIKVENTEENRRQFRELLFSVDNSISQSIGGVILFHETLYQKDSQGNLFRNVLKEKGIVVGIKLDQGGAPLAGTNKETTIQGLDGLSERCAQYKKDGVDFGKWRAVLRIADQCPSSLAIQENANALARYASICQQNGLVPIVEPEVLPDGDHDLEHCQYVSEKVLAAVYKALNDHHVYLEGTLLKPNMVTAGHACTKKYTPEQVAMATVTALHRTVPAAVPGICFLSGGMSEEDATLNLNAINRCPLPRPWKLSFSYGRALQASALAAWGGKAANKKATQEAFMKRAMANCQAAQGQYVHTGSSGAAATQSLFTASYTY | binds |

Reference: doi:10.1101/2023.03.05.531181
